Reference: PMC2575215

Protein sequences, listed by entry. Tags and fused reporters are not part of them. Lines headed by an entry give the natural chain unless they say otherwise; changes in a name come on top.
UniProt P12979: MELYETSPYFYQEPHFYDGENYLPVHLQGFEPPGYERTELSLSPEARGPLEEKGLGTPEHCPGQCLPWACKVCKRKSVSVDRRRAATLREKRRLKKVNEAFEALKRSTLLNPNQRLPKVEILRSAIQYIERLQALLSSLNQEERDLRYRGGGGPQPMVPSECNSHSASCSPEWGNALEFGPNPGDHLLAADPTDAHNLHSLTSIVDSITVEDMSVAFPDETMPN

Columns and labels:
[1] = target: myogenin (UniProt P12979); assay: EMSA; details: myotube extracts, shifted complex not detectable with mutant probe; 10 mM Tris pH 7.5, 40 mM KCl, 0.5 mM DTT, 10% glycerol, 1 ug poly(dIdC), 10-14 ug nuclear extract, 25 min room temperature; 5% gel at 10 C; protein in an extract; label: 32P (dCTP fill-in)
[2] = system: MEF-2; assay: EMSA; details: myotube extracts, no specific complex with mutant probe; 10 mM Tris pH 7.5, 40 mM KCl, 0.5 mM DTT, 10% glycerol, 1 ug poly(dIdC), 10-14 ug nuclear extract, 25 min room temperature; 5% gel at 10 C; protein in an extract; label: 32P (dCTP fill-in)

| Sequence | binding result [1] | binding result [2] |
| --- | --- | --- |
| GGCATTTCTGAGTGGCTCTGTGGCGACA (double strand) [ART1 E box mut] | no binding | – |
| GGAGGAGACAGAGTGAACACGACGAGTGTC (double strand) [ART1 A/T-rich mut] | – | no binding |

Construct, isoform or probe ends are uncertain for at least one entry. At least one result comes from cells or an extract, where the contact may be indirect. No signal at the amounts used counts as a negative.
